Laboratory results taken from patent publication EP3502102A1, “STING INHIBITORS” (ECOLE POLYTECHNIQUE FEDERALE DE LAUSANNE (EPFL), priority 2017, dated 2019).
For at least one compound, name, drawing or mass did not settle the structure.

The chains behind the UniProt entries cited, without tags or fusion partners.
UniProt P02786, whole entry: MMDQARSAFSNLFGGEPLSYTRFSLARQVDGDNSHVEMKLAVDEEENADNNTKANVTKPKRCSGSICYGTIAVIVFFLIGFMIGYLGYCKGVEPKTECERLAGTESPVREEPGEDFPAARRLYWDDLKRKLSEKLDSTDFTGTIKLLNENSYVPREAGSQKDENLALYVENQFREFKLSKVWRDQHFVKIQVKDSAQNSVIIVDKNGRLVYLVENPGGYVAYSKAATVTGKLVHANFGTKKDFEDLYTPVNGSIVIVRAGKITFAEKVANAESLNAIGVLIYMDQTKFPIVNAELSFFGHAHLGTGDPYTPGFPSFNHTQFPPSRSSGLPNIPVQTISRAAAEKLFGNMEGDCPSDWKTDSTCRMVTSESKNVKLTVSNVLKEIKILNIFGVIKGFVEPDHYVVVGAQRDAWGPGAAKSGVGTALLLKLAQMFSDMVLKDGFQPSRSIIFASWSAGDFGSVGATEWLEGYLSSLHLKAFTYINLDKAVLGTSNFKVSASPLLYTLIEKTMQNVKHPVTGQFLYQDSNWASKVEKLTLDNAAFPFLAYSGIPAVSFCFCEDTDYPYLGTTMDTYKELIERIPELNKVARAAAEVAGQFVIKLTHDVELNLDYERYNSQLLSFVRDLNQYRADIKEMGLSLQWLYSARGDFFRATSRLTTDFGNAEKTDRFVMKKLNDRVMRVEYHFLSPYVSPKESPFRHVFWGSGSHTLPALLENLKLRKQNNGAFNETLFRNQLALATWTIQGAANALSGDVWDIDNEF

Columns and labels:
Format in all cases: cell-based
[1] = target: T1, endogenous human transferrin receptor (Homo sapiens, UniProt P02786); experiment: Metabolic labelling with [3H] palmitate, endogenous transferrin receptor; details: 1 µM
T1 construct: endogenous in cells; host or cells: HEK293T

[2] = system: STING; experiment: IFN reporter in HEK293T cells overexpressing mouse or human STING; details: 0.5 µm
[3] = target: T2, STING (Mus musculus, UniProt Q3TBT3); experiment: Immunostaining of MEFs expressing Flag-STING after CMA; design: expressed in transfected cells; host or cells: HEK293T; details: 1.5 µM
T2 sequence (Q3TBT3 1-378): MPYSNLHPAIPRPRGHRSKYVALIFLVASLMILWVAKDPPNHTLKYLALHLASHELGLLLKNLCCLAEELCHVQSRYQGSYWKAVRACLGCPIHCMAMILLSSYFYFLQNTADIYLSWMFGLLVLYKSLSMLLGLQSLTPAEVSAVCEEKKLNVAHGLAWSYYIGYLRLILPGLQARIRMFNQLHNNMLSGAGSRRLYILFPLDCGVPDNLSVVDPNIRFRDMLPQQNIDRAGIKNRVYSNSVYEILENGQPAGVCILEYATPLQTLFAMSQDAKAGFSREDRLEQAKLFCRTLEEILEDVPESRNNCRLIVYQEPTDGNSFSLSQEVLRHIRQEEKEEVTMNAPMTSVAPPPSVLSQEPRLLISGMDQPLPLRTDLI

[4] = target: T3, TBK1 (Homo sapiens, UniProt Q9UHD2); experiment: IFN-beta luciferase reporter in HEK293T cells transfected with TBK1; details: 0.01-5µM
T3 construct: expressed in transfected cells; host or cells: HEK293T
T3 sequence (Q9UHD2 1-729): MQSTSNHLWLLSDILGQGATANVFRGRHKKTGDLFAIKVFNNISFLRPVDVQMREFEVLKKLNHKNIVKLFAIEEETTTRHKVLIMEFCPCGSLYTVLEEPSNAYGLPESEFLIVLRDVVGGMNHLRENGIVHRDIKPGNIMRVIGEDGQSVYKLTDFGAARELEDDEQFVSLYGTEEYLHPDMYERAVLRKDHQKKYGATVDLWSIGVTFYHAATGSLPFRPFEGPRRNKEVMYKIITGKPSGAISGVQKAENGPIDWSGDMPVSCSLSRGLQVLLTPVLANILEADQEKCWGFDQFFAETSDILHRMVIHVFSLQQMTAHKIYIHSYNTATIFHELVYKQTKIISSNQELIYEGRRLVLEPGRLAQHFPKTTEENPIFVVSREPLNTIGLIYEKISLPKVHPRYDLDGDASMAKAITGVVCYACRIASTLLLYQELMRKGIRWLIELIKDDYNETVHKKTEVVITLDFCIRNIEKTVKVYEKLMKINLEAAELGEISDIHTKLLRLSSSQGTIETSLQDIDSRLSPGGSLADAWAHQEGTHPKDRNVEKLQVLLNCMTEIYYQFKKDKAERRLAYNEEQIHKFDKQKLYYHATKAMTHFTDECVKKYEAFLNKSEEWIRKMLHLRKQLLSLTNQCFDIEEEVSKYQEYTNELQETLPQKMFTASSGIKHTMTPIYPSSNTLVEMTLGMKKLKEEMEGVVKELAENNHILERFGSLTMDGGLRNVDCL

[5] = target: T2, STING; experiment: IFN-beta luciferase reporter in HEK293T cells transfected with STING, alone or with a cyclic dinucleotide synthase; design: expressed in transfected cells; host or cells: HEK293T
Protocol: Reporter activity was measured 16 h after compound treatment. A nonlinear regression analysis was performed. […] Cytokine levels were normalized to DMSO-treated control cells. […] Nuclei were stained with DAPI. […] Depicted genes were measured by RT-qPCR. […] 16 h later Luciferase activity was measured. […] Flag-STING was immunoprecipitated and analysed by autoradiography.
HEK293T cells expressing murine STING with an N-terminal mCherry-tag ^28 were transfected using GeneJuice (Millipore) with a construct encoding for cyclic di-GMP synthase in conjunction with an IFN-• firefly luciferase reporter plasmid. 3 h after transfection cells were seeded in […] (Corning) coated with library compounds. For each compounds, a 40 nl volume was selected to obtain a concentration of 10 µM in the assay plates. The amount of DMSO in each well was normalised to 0.1%. After overnight treatment, cells were lysed in lysis buffer (25 mM Tris-phosphate (pH 7.8), 2 mM DTT, 2 mM 1,2-diaminocyclohexane-N,N,N',N'-tetraacetic acid, 10% glycerol, 1% Triton® X-100) for 20 min followed by the addition of firefly luciferase. Reporter activity was measured using a Tecan Infinite plate reader. The screen was performed using on ∼ 20.000 compounds from a chemically diverse compound collection available at the BSF core facility at EPFL. […]

SMILES: O=C(Nc1ccc2c(c1)oc1ccccc12)c1ccc([N+](=O)[O-])o1 [C-178, N-dibenzo[b,d]furan-3-yl-5-nitro-2-furamide]
- [^3H] palmitate labelling of the endogenous transferrin receptor [1]: neither C-178 nor C-176 affected
- IFN response, species selectivity [2]: selectively acts on STING in mouse cells
- phosphorylation of TBK1 [3]: completely abolishing
- translocation of STING from the ER to the Golgi [3]: did not affect
- TBK1-driven IFN induction [4]: neither RIG-I nor TBK1-driven IFN induction was affected
- potency compared to C-176 with regards to IC50 values [5]: higher potency
